Reference: patent publication US10131671B2, “Organic compounds” (Intra-Cellular Therapies, Inc., priority 2014, dated 2018)
Some entries share one result that the patent states for a list of compounds.

Assay: Pharmacokinetic analysis in mice: plasma and brain levels after oral dose
Type: in vivo, C57BL/6 mice
Conditions: 10 mg/kg PO
Description: Animals: Male, C57BL/6 mice (Jackson Labs, 25-30 g in body weight) are provided by Jackson Laboratories. Up to five mice are housed per cage and are maintained under a 12 hour light/dark cycle with access to food and water ad libitum. All procedures for the handling and use of animals follow the guidelines of the Institutional Animal Care and Use Committee (IACUC) of Columbia University, in accordance with NIH guidelines. Eight week-old mice (N=3/dose level or treatment group) are used in the experiments.
Experimental Treatment: Compounds: Selected Compounds of the Invention are evaluated in the present study. Formulation/Vehicle: 3% 1N HCl, 5% Labrasol and 92% of 5% TPGS in 0.05M Citrate buffer (CB, pH 4.0). The test compound(s) are prepared as solution in vehicle and are dosed in a volume of 8 ml/kg.
Compound Preparation: Powdered stocks of the test compound(s) are measured and dissolved in 3% 1N HCl, 5% Labrasol and 92% of 5% TPGS in 0.05M Citrate buffer (CB, pH 4.0). Two or three layers of 3 mm glass beads are added to the bottom of the 10 ml glass tube to promote mixing. The tube is mixed using a benchtop vortex mixer then sonicated using a VWR sonicator (model 750) for about 5 min until the drug powder is totally dissolved in into a vehicle solution.
Treatment of Animals: Mice (N=3 mice/dose/time point) receive a 10 mg/kg oral (PO) dose of the test compound(s) at time 0. Groups of mice are killed at a specified time point, either 0.25, 0.5, 1, or 2 h after drug administration. Brain tissue is collected and frozen at −80° C., until analysis. Blood is collected from the mice by puncture of the retro-orbital vein using a Pasteur pipette (VWR, Cat#53283-911), then deposited into silicon-coated blood collection tubes containing 0.105M sodium citrate solution (BD Vacutainer, #366392, Franklin Lakes, N.J.). Blood samples are centrifuged at the speed of 8000 g for 40 minutes in 4° C. (TOMY, refrigerated benchtop microcentrifuge, Fremont, Calif. 94583) and plasma decanted into Eppendorf tubes and frozen at −80° C. until analysis. Plasma and brain tissue samples are processed and analyzed by the analytical group using LC-MS/MS methods, as described below.
Sample Preparation: Samples of plasma are prepared for analysis as follows: 50 μL of the plasma samples is transferred into a 500 al polypropylene microtube (Eppendorf Cat#022363611) as follows:
Each tube is vortex mixed, then centrifuged for 20 min at 15000 rpm. The supernatant is collected and 100 μL of each is then transferred into a 96-well polypropylene Elisa plate for mass spectrometric analysis.
Samples of brain homogenate were prepared for analysis as follows: Approximately 0.5 g of brain tissue is weighed and homogenized with 1 mL Milli-Q water. Then 60 μL of the resulting homogenate is then transferred into a clean 500 μL polypropylene microtube (Eppendorf Cat#022363611) and treated as shown below:
Each tube is vortexed, then centrifuged for 20 min at 15000 rpm using a Tomy benchtop centrifuge at 4° C. Standard is an internal standard used for LC-MS/MS quantitation. 150 μL of each supernatant is then transferred into a 96-well plate for mass spectrometric analysis. Any remaining plasma or homogenate is stored at approximately −20° C. pending any necessary repeat analysis. For each test sample, a calibration curve is prepared covering the range of 0.5-500 ng/mL.
HPLC and Mass Spectrometric Analysis: Analysis to quantify the concentration of each compound in plasma and brain homogenate is carried out using reverse phase HPLC followed by mass spectrometric detection using the parameters listed:
Each compound is detected and quantified using Multiple Reaction Monitoring (MRM) of positive electrospray mode with a Waters QuattroMicro™ mass spectrometry system.
RESULTS: Plasma and Brain Analysis: All the test compound(s) tested could be detected and analyzed when spiked into control plasma. […]

Row | Structure (SMILES) | oral bioavailability to the plasma
1 | CN1C(=O)c2c(nn(Cc3ccc(S(N)(=O)=O)cc3)c2Nc2ccccc2)N2C1=N[C@@H]1CCC[C@@H]12 [Example 5, 4-(((6aR,9aS)-5-methyl-4-oxo-3-(phenylamino)-4,5,7,8,9,9a-hexahydrocyclopenta[4,5]imidazo[1,2-a]pyrazolo[4,3-e]pyrimidin-2(6aH)-yl)methyl)benzenesulfonamide] | excellent
2 | Cc1ncc(Cn2nc3c(c2Nc2ccc(F)cc2)C(=O)N(C)C2=NC(C)(C)CN23)cn1 [Example 2, 3-((4-fluorophenyl)amino)-5,7,7-trimethyl-2-((2-methylpyrimidin-5-yl)methyl)-7,8-dihydro-2H-imidazo[1,2-a]pyrazolo[4,3-e]pyrimidin-4(5H)-one] | excellent
3 | Cc1ccc(Cn2nc3c(c2Nc2ccc(F)cc2)C(=O)N(C)C2=NC(C)(C)CN23)cn1 [Example 6, 3-((4-fluorophenyl)amino)-5,7,7-trimethyl-2-((6-methylpyridin-3-yl)methyl)-7,8-dihydro-2H-imidazo[1,2-a]pyrazolo[4,3-e]pyrimidin-4(5H)-one] | excellent
4 | CCc1c2c(nn1Cc1ccc(-c3cccc(O)n3)cc1)N1CC(C)(C)N=C1N(C)C2=O [Example 10, 3-ethyl-2-(4-(6-hydroxypyridin-2-yl)benzyl)-5,7,7-trimethyl-7,8-dihydro-2H-imidazo[1,2-a]pyrazolo[4,3-e]pyrimidin-4(5H)-one] | excellent
5 | Cc1c2c(nn1Cc1ccc(-c3cccc(O)n3)cc1)N1CC(C)(C)N=C1N(C)C2=O [Example 9, 2-(4-(6-hydroxypyridin-2-yl)benzyl)-3,5,7,7-tetramethyl-7,8-dihydro-2H-imidazo[1,2-a]pyrazolo[4,3-e]pyrimidin-4(5H)-one] | excellent
6 | CN1C(=O)c2c(nn(Cc3cccnc3)c2Nc2ccc(F)cc2)N2CC(C)(C)N=C12 [Example 3, 3-((4-fluorophenyl)amino)-5,7,7-trimethyl-2-(pyridin-3-ylmethyl)-7,8-dihydro-2H-imidazo[1,2-a]pyrazolo[4,3-e]pyrimidin-4(5H)-one] | excellent
7 | CN1C(=O)c2c(nn(Cc3ccc(-c4cccc(O)n4)cc3)c2Nc2ccccc2)N2C1=N[C@@H]1CCC[C@@H]12 [Example 4, (6aR,9aS)-2-(4-(6-hydroxypyridin-2-yl)benzyl)-5-methyl-3-(phenylamino)-5,6a,7,8,9,9a-hexahydrocyclopenta[4,5]imidazo[1,2-a]pyrazolo[4,3-e]pyrimidin-4(2H)-one] | excellent
8 | CN1C(=O)c2c(nn(Cc3ccc(-c4cccc(O)n4)cc3)c2Nc2ccc(F)cc2)N2CC(C)(C)N=C12 [Example 8, 3-((4-fluorophenyl)amino)-2-(4-(6-hydroxypyridin-2-yl)benzyl)-5,7,7-trimethyl-7,8-dihydro-2H-imidazo[1,2-a]pyrazolo[4,3-e]pyrimidin-4(5H)-one] | excellent
